The campaign covered roughly 6,900 compounds. Fewer than 10 were called active. Calls come from the whole dose curve; as a rule, active = well fitted curve in the direction sought with a large enough effect; inconclusive = small, poorly fitted or top-dose-only effect, or another doubt; inactive = no such curve, though single readings can be large or run the other way. Some of the results follow.
These compounds were tested against Metallo-beta-lactamase type 2 (Klebsiella pneumoniae) (UniProt C7C422) (assay: qHTS to identify inhibitors of the New Delhi Metallo-beta-lactamase (NDM): primary screen against the NCATS Gemini Collection). Conditions: NDM-1 enzyme, meropenem hydrolysis, absorbance 300 nm; at 38.4 µM (top of the series) unless noted.
Method in brief: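 Meropenem hydrolysis (50 uM final) by 2 nM NDM-1 read as 300 nm absorbance after 30 min, following >30 min compound–enzyme preincubation in HEPES pH 7.0 with 1 uM ZnSO4 and 0.01% Tween20.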
Note: % of control where 0% means no effect.

Protein sequences, listed by entry. Tags and fused reporters are not part of them. Lines headed by an entry give the natural chain unless they say otherwise; changes in a name come on top.
UniProt C7C422: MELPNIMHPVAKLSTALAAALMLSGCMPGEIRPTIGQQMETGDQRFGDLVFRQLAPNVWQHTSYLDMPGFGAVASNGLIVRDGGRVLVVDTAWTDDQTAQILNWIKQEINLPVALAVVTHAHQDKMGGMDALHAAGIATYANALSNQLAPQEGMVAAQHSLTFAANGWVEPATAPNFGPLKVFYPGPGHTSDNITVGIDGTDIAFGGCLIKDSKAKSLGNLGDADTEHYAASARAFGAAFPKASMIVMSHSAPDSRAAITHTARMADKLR

Activity % (negative = inhibition), inactive:
CN(CC1CCOCC1)S(=O)(=O)c1ccc(Cl)s1 -0.576%, Cc1ccc2c(C(=O)NCc3ccc(C(F)(F)F)cc3)cc(NC(=O)C(C)C)cc2n1 8.15%, COC(=O)C1=CN(CC(=O)NCCCc2ccccc2)S(=O)(=O)N=C1C -0.481%, Cn1cc(CNC(=O)c2ccc(S(=O)(=O)N[C@@H]3CCNC3)cc2)cn1 -0.515%, CS(=O)(=O)N1CCC(C2CCN(Cc3ccc4c(c3)CCO4)C2)CC1 (stereo unspecified) -3.05%, CC1=C(C(=O)Nc2ccccc2)C(c2cc(C)ccc2C)N2C(CC(=O)N3CCCC3)=CSC2=N1 (stereo unspecified) 5.08%, CCOC(=O)C1CCCN(C(=O)C2CCc3nnc(C4CCN(C(C)=O)CC4)n32)C1 (stereo unspecified) -3.56% [at 57.5 µM], O=c1cc(-c2ccncc2)oc2c(-c3cccc(CO)c3)nccc12 12.1% [at 57.5 µM], CCN1CCN(C(=O)C2CCc3ncc(-c4ccsc4)n3C2)CC1 (stereo unspecified) 0.375%, O=C(NCC1CCCCC1)c1cc(-c2cc(Cl)cc(Cl)c2)c2nncn2n1 9.48%, COC(=O)[C@H](NC(=O)[C@@H]1C[C@H](NC(=O)Nc2ccc(OC)cc2)CN1C(=O)c1cccn1C)C(C)C 20.5%, O=C(NC1CC1)c1nc(-c2ccc(F)cc2)c2cnccn12 0.827%, CC(C)OC(=O)N1CCC(COc2cnc3c(ccn3CC(N)=O)c2)CC1 7.35% [at 57.5 µM], COCCN(Cc1ccccc1F)Cc1cc2c(cc1OC)OCO2 -0.046%, Cc1cnc(CC2CCCN(Cc3ccc(F)cc3F)C2)n1Cc1ccccc1 (stereo unspecified) 5.38%, CC1CCN(c2ncncc2-c2nc(-c3ccccc3)no2)CC1 -13.3%, CC(=O)N1CCC(N2CCC[C@H]2c2nc(-c3ccc(-c4ccncc4)nc3)no2)CC1 22.7% [at 57.5 µM], CN(CCc1ccccn1)C(=O)[C@@]12CCCC[C@H]1N(C)C(=O)CC2 15.5%, COC[C@H]1C[C@@H](NC2CCN(C(C)=O)CC2)[C@H](O)[C@@H]1O 0.078% [at 77.1 µM], Cc1cnc(C2CCC2)n1CC1CCN(C(=O)COCc2ccccc2)C1 (stereo unspecified) -5.28%, CC(=O)Nc1cccc(CN2CCC(N3CCCNC3=O)CC2)c1 -0.602% [at 57.5 µM], COc1ccc(CC(=O)N(C)C2CCc3nnc(C)n3CC2)cc1Cl (stereo unspecified) -0.188%, COCCn1cnnc1CCNC(=O)c1oc2cc(OC)ccc2c1C 15.6%, COCCNc1ncc(-c2ccc(F)cc2)c2c1OCC2 14.1% [at 77.1 µM], COc1ccc(CCC(=O)N2CCC3(CC2)CC(C(=O)N2CCOCC2)N(C)C3)cc1 (stereo unspecified) 7.21%, Cn1cccc1CN1CCC2(C1)C(=NC1CCCC1)NC(=O)N2c1cccnc1 (stereo unspecified) 4.75%, NCCCC(=O)N1CCCC2(Cc3ccccc3CN2C(=O)c2cccc(Cl)c2)C1 (stereo unspecified) 9.24%, CCN1C(=O)C2CC3(CCN(Cc4cnn(CC)c4C)CC3)CN2C1=O (stereo unspecified) 6.1%, Cc1cn2nc(C(=O)NCc3cccnc3)cc2c(=O)[nH]1 12.3%, COc1nccnc1-c1cc(NCCN(C)C)nc2[nH]ccc12 3.36%, COc1cc(=O)n2c(c1C(=O)N1CCN(c3ccc(C)cc3C)CC1)CCCC2 2.82%, O=C(C1CCCC1)N1CCCC(c2nn[nH]n2)C1 (stereo unspecified) 10.3%, O=C(NCc1cc2n(n1)CCCN(C1CCCCC1)C2)c1cccc(F)c1 -4.41%, CCNC(=O)[C@@H]1C[C@H](N)CN1C(=O)C(C)(C)Oc1ccc(C)cc1 9.75%, COc1cccc([S+](=O)([O-])N2CC(N3CCc4ccccc43)C2)c1 -0.594%, N#Cc1cc(CN2CCCC(C(=O)Nc3cccc(-c4ccc(F)cc4)c3)C2)c[nH]1 (stereo unspecified) 0.808%, Cc1noc2nc3c(c(C(=O)N[C@H]4CC[C@H]4N)c12)CCC3 11.1%, CCCCN1C(=O)c2ccccc2C(C(=O)NC2CC2)C12CCCCC2 (stereo unspecified) 15.3%, O=C(NCC1CC1)C1CCc2ncc(-c3ccc(F)cc3)n2C1 (stereo unspecified) 20.8%, CC(C)C[C@H](NC(=O)[C@@H]1C[C@@H](n2nnc(C(N)=O)c2C(N)=O)CCN1C(=O)c1cnccn1)C(N)=O 7.56%, O=C(NCC1CCCO1)N1CCCCCCn2c(nnc2-c2ccc(F)cc2)CC1 (stereo unspecified) -1.27%, Cc1ccc(C2(O)CCN(c3nc(C)ccc3C(N)=O)CC2)nc1 -1.02%, O=S(=O)(c1ccccc1)N1CCC(F)(c2nc(-c3ccncc3)no2)CC1 5.28%, O=C1COc2ccc(OCc3cncs3)nc2CN1Cc1ccc(F)cc1 17.5% [at 57.5 µM], C#CCOc1ccccc1CN1CCN(c2ncc(F)cn2)CC1 3.28%, CCNC(=O)N1C[C@H]2OC(=O)N(Cc3ccc(OC)c(OC)c3)[C@H]2C1 9.41%, CC(C)c1nc(-c2ccc(OC3CCNC3)cc2)no1 (stereo unspecified) 9.76%, CC(C)CCN1CC(Oc2ccc(F)cc2F)C1 -2.02% [at 57.5 µM], Cc1cc(CNS(=O)(=O)c2ccc3c(c2)CCN(C(=O)C(O)C(C)C)C3)no1 (stereo unspecified) -1.18%, CCc1nc(CN2CCOC(c3ccc4cc(OC)ccc4c3)C2)no1 (stereo unspecified) 0.411%, CC(C)CNc1ncnc2c1CN(C1CNC1)C(=O)CN2C 15.2%, O=C1NCCCCCN(CC2CCCCC2)[C@H]2CCC[C@@H]12 4.15%, CCc1nc(CC)n2ccn(Cc3ccc(OC)cc3)c(=O)c12 2.7%, O=C(Nc1ccc2c(c1)OCCO2)N1CC(c2nc(CCOCC3CC3)no2)C1 5.68%, Cc1cc(C)cc(CCC(=O)N2CCN(c3ccc(C#N)cn3)CC2)c1 28.9%, CC(C)Cc1cc(CC2(NC3CCOCC3)COC2)no1 -0.303% [at 57.5 µM], COCC(=O)N1CCC(c2nn(-c3ccccn3)c(=O)[nH]2)CC1 11.1% [at 57.5 µM], O=S(=O)(Cc1ccccc1)NC[C@H]1Cn2cc(-c3ccccc3)nc2CO1 0.229% [at 57.5 µM], CC(C)(Oc1nn(CCOc2ccccc2)c2ccccc12)C(=O)NCc1ccncc1 5.77% [at 57.5 µM], FC(F)Oc1ccccc1CN(CC1CCN(C2CCCC2)CC1)CC1CCCO1 (stereo unspecified) 51.9%, COc1ccccc1-n1cc(C(=O)N2CCC3(CCNC(=O)CC3)CC2)cn1 -0.281%, CCN(Cc1nccn1C)C(=O)c1ccc(N2CCSCC2)nc1 -5.74%, COc1ccccc1-c1ccc2c(n1)CN(CC(=O)N1CCCC1)C(=O)CO2 7.19% [at 57.5 µM], COCCCN1CC2(CCN(C(=O)CCn3cc(C)cn3)CC2)CC1=O 1.5%, O=C(NC1CCCCC1)N[C@H]1CO[C@H]2[C@@H]1OC[C@H]2O -1.33% [at 77.1 µM], O=[S+]([O-])(Nc1ccccc1)c1ccc2c(c1)OCCN(Cc1cocn1)C2 -7.09% [at 57.5 µM], CC(C)CN1CCc2[nH]cnc2C12CCN(C(=O)c1n[nH]c3c1CCC3)CC2 -5.09%, COc1ccc(-c2ncc3c(n2)OCCN(Cc2ccccc2)C3=O)cn1 5.46% [at 57.5 µM], COc1ccc(-c2cc(N3CCCC(NC(=O)C4CCCC4)C3)n[nH]2)cc1 (stereo unspecified) 3.11%, O=C(Nc1ccccc1)N1CCC(Oc2ccccc2-c2nc(-c3ccccc3)no2)C1 (stereo unspecified) 0.401%, O=C1N[C@@H](Cc2cccs2)C(=O)N2CC[C@H](NS(=O)(=O)c3cccs3)C[C@@H]12 7.8% [at 57.5 µM], CNC(=O)C1(N2CCC[C@H]2C(=O)NCCNC(C)=O)CCCCC1 11.9% [at 57.5 µM], O=C(NCC(F)(F)F)c1cn2cc(-c3ccc(C(F)(F)F)cc3)sc2n1 2.73%, COCc1ccc(C(=O)NCc2cc(C)cc3c(C)c(C)[nH]c23)o1 19.8%, COCCn1c2c(c(=O)n1-c1ccccc1)CCN(C(=O)c1cccc(C#N)c1)C2 2.95% [at 57.5 µM], O=C(c1ccc(C(F)(F)F)cc1)N1CC2CC(C1)[C@H]1CCCC(=O)N1C2 (stereo partly specified) 11.9%, COc1ccc(C(=O)Nc2cnc(-c3ccc(Cl)cc3)nc2)cc1 -2.84%, CCOCC(=O)N1CCC(Nc2cccn3ncnc23)CC1 12.2%, Cc1cc(C(=O)N2CCC3(CC2)CC(O)CCO3)c(C)o1 (stereo unspecified) -0.624%, Cc1ccccc1-c1[nH]nc2ncc(-c3c(C)noc3C)nc12 11.6% [at 57.5 µM], Cc1nc([C@H]2CCNC[C@H]2NC(=O)C2CC2)n[nH]1 33.9%, C=CCn1cc(CN2CCOC(Cc3cccc4ccccc34)C2)c(C)n1 (stereo unspecified) 18.4%, COc1cccc(CN2CCOCCNC(=O)CC2)c1 46.9%, CCN1CCN(C(=O)c2ccc(-c3nnc4ccc(NC(=O)C5CC5)cn34)cc2)CC1 4.68%, O=C1CCCCC(C(=O)NC2CCCC2)N1 (stereo unspecified) 2.7%, O=C(NC[C@H]1O[C@@H](CO)[C@@H](O)[C@H]1N1CCN(c2ccccn2)CC1)Nc1ccccc1 14.7%

— PubChem BioAssay AID1794845 (National Center for Advancing Translational Sciences (NCATS), 2023)
